± gives the standard deviation of the averaged measurements. The list shows a part of the results. Repeats in this data set agree poorly, so a single value says little.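 Fusion between ACE2-bearing and full-length-spike-bearing U2OS cells was measured by imaging as the percentage of nuclei with both cell types' fluorescent markers. An inhibitory hit is a non-toxic compound whose fusion z-score is below -3, more than three standard deviations beneath the plate's DMSO wells.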
Tested on: U2OS ACE2 x SARS-CoV-2 spike co-culture
Experiment: cell-cell fusion (fraction fused) z-score vs plate DMSO control; higher = more fusion
Settings: 30 µM; 5 h; toxicity class: non-toxic, passed QC

SMILES | cell-cell fusion (z-score)
CN(C)CCc1c[nH]c2ccc(Cn3cncn3)cc12.O=C(O)c1ccccc1 | inactive: 0.807
CN(C)CCc1c[nH]c2ccc(Cn3cncn3)cc12.O=C(O)c1ccccc1 [Rizatriptan benzoate salt] | inactive: 1.53
CCCC(=O)NCCc1c2n(c3ccc(OC)cc13)CCCc1ccccc1-2 | inactive: 4.06
CCN(CC)CCOCCOC(=O)C1(c2ccccc2)CCCC1.O=C(O)CC(O)(CC(=O)O)C(=O)O [Carbetapentane citrate] | inactive: 1.78
CCN(CC)CCOCCOC(=O)C1(c2ccccc2)CCCC1.O=C(O)CC(O)(CC(=O)O)C(=O)O | inactive: 0.811
CCCOc1ccccc1-c1nc2[nH]nnc2c(=O)[nH]1 | inactive: 0.568
C=COCC(F)(F)F | inactive: 1.4
O.O.O.O.O.O.O.O=C1CN(/N=C/c2ccc(-c3ccc([N+](=O)[O-])cc3)o2)C(=O)[N-]1.O=C1CN(/N=C/c2ccc(-c3ccc([N+](=O)[O-])cc3)o2)C(=O)[N-]1.[Na+].[Na+] [Dantrolene sodium hemiheptahydrate] | inactive: 2.08
COCCCOc1ccnc(CS(=O)c2nc3ccccc3[n-]2)c1C.[Na+] (stereo not given) [Rebeprazole sodium] | inactive: -0.61
COc1cc2c(cc1OC)Cc1cc(OC)c(OC)cc1Cc1cc(OC)c(OC)cc1C2 | inactive: 1.76
O=NN(CCCl)C(=O)NC1CCCCC1 | inactive: 1.64
CN1CCc2cc3c(cc2[C@H]1C1OC(=O)c2c1ccc1c2OCO1)OCO3 (stereo not given in full) | inactive: 2.57
Cc1cc(OC(=O)c2c(C)cc(O)cc2O)cc(O)c1C(=O)O | inactive: 1.94
O=C(O)c1cc2ccccc2[nH]1 | inactive: 5.03
CN(C)C(=O)Oc1ccc[n+](C)c1.[Br-] [Mestinon] | inactive: 3.91
Br.NCc1cc(O)no1 [Muscimol hydrobromide] | inactive: 2.22
Cn1c(=O)c2[nH]cnc2n(C)c1=O.Cn1c(=O)c2[nH]cnc2n(C)c1=O.NCCN [Aminophylline] | inactive: 1.09
Clc1ccc(C2(c3ccc(-c4cn[nH]c4)cc3)CCNCC2)cc1 | inactive: -2.9
NC[C@H](O)c1ccc(O)c(O)c1 [Norepinephrine] | inactive: 0.941
COC(=O)OCOc1c2n(ccc1=O)N(C1c3ccccc3SCc3c1ccc(F)c3F)C1COCCN1C2=O (stereo not given) [Baloxavir marboxil] | inactive: 0.634
CC(=O)N[C@@H](CS)C(=O)O [N-Acetyl-L-Cysteine] | inactive: 1.54
CCCN1C[C@H](CSC)C[C@@H]2c3cccc4[nH]cc(c34)C[C@H]21.CS(=O)(=O)O [Pergolide methanesulfonate] | inactive: -1.22
CC(Cl)(Cl)C(=O)O | inactive: 2.94
COc1ccc(-c2cc(=O)c3c(O)c(OC)c(OC)c(OC)c3o2)cc1OC | inactive: 2.64

Shown as a markdown table: part of the list above

| SMILES | cell-cell fusion (z-score) |
| --- | --- |
| CN(C)CCc1c[nH]c2ccc(Cn3cncn3)cc12.O=C(O)c1ccccc1 | inactive: 0.807 |
| C=COCC(F)(F)F | inactive: 1.4 |
| COc1cc2c(cc1OC)Cc1cc(OC)c(OC)cc1Cc1cc(OC)c(OC)cc1C2 | inactive: 1.76 |
| CN1CCc2cc3c(cc2[C@H]1C1OC(=O)c2c1ccc1c2OCO1)OCO3 (stereo not given in full) | inactive: 2.57 |

Remaining list, next part:

SMILES | cell-cell fusion (z-score)
O=C1OCCN1/N=C/c1ccc([N+](=O)[O-])o1 [Furazolidone] | inactive: 1.72
Cc1nc(C#Cc2cccnc2)cs1.Cl [MTEP hydrochloride] | inactive: 3.2
CCC1(C2=NCCN2)Cc2ccccc2O1.Cl (stereo not given) | inactive: 1.81
CCC1(C2=NCCN2)Cc2ccccc2O1.Cl (stereo not given) [Efaroxan hydrochloride] | inactive: 5.03
Cc1ccccc1N1C(=O)c2cc(S(N)(=O)=O)c(Cl)cc2NC1C (stereo not given) | inactive: 3.25
COc1ccc(-c2cc[c+](N)n(CCCC(=O)O)n2)cc1.[Br-] | inactive: 2.63
C[C@H](Cn1cnc2c(N)ncnc21)OCP(=O)(O)O.NCCO | inactive: 1.33
CC(C(=O)O)c1cccc(C(=O)c2ccccc2)c1 (stereo not given) [Ketoprofen] | inactive: 2.87
[O-][n+]1ccccc1[S-].[O-][n+]1ccccc1[S-].[Zn+2] | inactive: 0.952
COc1cc([C@@H]2c3cc4c(cc3[C@H](OC(C)=O)[C@H]3COC(=O)[C@@H]23)OCO4)cc(OC)c1OC | inactive: 2.27
COCCc1ccc(OCC(O)CNC(C)C)cc1.COCCc1ccc(OCC(O)CNC(C)C)cc1.O=C(O)C(O)[C@H](O)C(=O)O (racemic) [(±)-Metoprolol (+)-tartrate] | inactive: 1.88
O=C(Oc1cccc2cccnc12)c1ccccc1 | inactive: 3.94
CC1(C)O[C@@H]2C[C@H]3[C@@H]4C[C@H](F)C5=CC(=O)C=C[C@]5(C)[C@@]4(F)[C@@H](O)C[C@]3(C)[C@]2(C(=O)CO)O1 [Fluocinolone acetonide] | inactive: 0.986
O=C(O)c1cc(O)c2ccccc2n1 | inactive: 3
Cl.N=C(N)NC(=N)NCCc1ccccc1 | inactive: 1.3
CC[C@H]1C2CC3[C@@H]4N(C)c5ccccc5[C@]45C[C@@H](C2C5O)N3[C@@H]1O (stereo not given in full) | inactive: 1.72
C[N+]1(C)CCCC(OC(=O)C(O)(c2ccccc2)c2ccccc2)C1.[Br-] (stereo not given) [Mepenzolate Bromide] | inactive: 2.82
O=S(=O)(OC[C@H]1O[C@@](COS(=O)(=O)[O][Al]([OH])[OH])(O[C@H]2O[C@H](COS(=O)(=O)[O][Al]([OH])[OH])[C@@H](OS(=O)(=O)[O][Al]([OH])[OH])[C@H](OS(=O)(=O)[O][Al]([OH])[OH])[C@H]2OS(=O)(=O)[O][Al]([OH])[OH])[C@@H](OS(=O)(=O)[O][Al]([OH])[OH])[C@@H]1OS(=O)(=O)[O][Al]([OH])[OH])[O][Al]([OH])[OH].[OH][Al]([OH])[OH].[OH][Al]([OH])[OH].[OH][Al]([OH])[OH].[OH][Al]([OH])[OH].[OH][Al]([OH])[OH].[OH][Al]([OH])[OH].[OH][Al]([OH])[OH].[OH][Al]([OH])[OH] | inactive: 2.2
CCn1cc(C(=O)O)c(=O)c2cc3c(cc21)OCO3 [Oxolinic acid] | inactive: 2.01
Cc1cc2nc3c(=O)[nH]c(=O)nc-3n(C[C@@H](O)[C@@H](O)[C@@H](O)COP(=O)([O-])O)c2cc1C.[Na+] | inactive: 2.14
COc1c(O)cc2c(c1O)[C@H]1O[C@H](CO)[C@@H](O)[C@H](O)[C@@H]1OC2=O | inactive: 1.24
NC(=O)OCC(COC(N)=O)c1ccccc1 [Felbamate] | inactive: 2.71
COC(=O)c1cc(OC)c(=O)c2c(OC)c(OC)ccc2c1 | inactive: -0.461
CC[C@@H](C(=O)O)[C@@H]1O[C@@H]([C@@H](C)[C@H](O)[C@H](C)C(=O)[C@H](CC)[C@H]2O[C@]3(C=C[C@@H](O)[C@]4(CC[C@@](C)(C5CC[C@](O)(CC)[C@H](C)O5)O4)O3)[C@H](C)C[C@@H]2C)[C@@H](C)C[C@H]1C (stereo not given in full) | inactive: 1.93

SMILES | cell-cell fusion (z-score)
O=C(Nc1ccccc1)c1cc([N+](=O)[O-])ccc1Cl | inactive: 0.788
CC1(C)CC[C@]2(C(=O)O)CC[C@]3(C)C(=CCC4[C@@]5(C)CC[C@@H](O)C(C)(C)C5CC[C@]43C)C2C1 (stereo not given in full) | inactive: 2.76
CC(C)(C)NCC(O)c1cc(O)cc(O)c1.CC(C)(C)NCC(O)c1cc(O)cc(O)c1.O=S(=O)(O)O (stereo not given) [Terbutaline hemisulfate] | inactive: -1.97
CC(C)(C)NCC(O)COc1cccc2[nH]c(=O)[nH]c12.Cl (racemic) | inactive: 1.82
Cc1oncc1C(=O)Nc1ccc(C(F)(F)F)cc1 [Leflunomide] | inactive: 1.71
CCCC1O[C@@H]2C[C@H]3[C@@H]4CCC5=CC(=O)C=C[C@]5(C)[C@H]4[C@@H](O)C[C@]3(C)[C@]2(C(=O)CO)O1 (stereo not given in full) [Budesonide] | -1.28 ± 3.3
OCCn1cc(-c2ccc3c(c2)CC/C3=N\O)c(-c2ccncc2)n1 | inactive: -0.722
CNC(=O)Nc1ccc(-c2nc(N3CC4CCC(C3)O4)c3cnn(C4CCC5(CC4)OCCO5)c3n2)cc1 | inactive: 0.691
O=C1O[C@H](C(O)CO)C(O)=C1O (stereo not given in full) | inactive: 0.717
COc1ccc(Cc2nccc3cc(OC)c(OC)cc23)cc1OC.Cl [Papaverine hydrochloride] | inactive: 0.229
CC1=NS(=O)(=O)c2cc(Cl)ccc2N1 [Diazoxide] | inactive: 2.8
Cn1c(=O)cc(N2CCC[C@@H](N)C2)n(Cc2ccccc2C#N)c1=O.O=C(O)c1ccccc1 [Alogliptin Benzoate] | inactive: 1.67
CCCCS(=N)(=O)CC[C@H](N)C(=O)O (stereo partly drawn) [L-Buthionine-sulfoximine] | inactive: 1.53
O[C@@H]1[C@H](O)CO[C@H]1O | inactive: 1.43
CC(C)c1nc(CN(C)C(=O)N[C@@H](CCN2CCOCC2)C(=O)N[C@H](CC[C@H](Cc2ccccc2)NC(=O)OCc2cncs2)Cc2ccccc2)cs1 [Cobicistat] | inactive: 1.48
C[C@]12CC[C@H](O)C[C@H]1CCC1C2CC[C@]2(C)[C@@H](C3=CC(=O)OC3)[C@@H](O)C[C@]12O (stereo not given in full) | inactive: 1.4
C[C@@H](c1nc(-c2ccc(C#N)cc2)cs1)[C@](O)(Cn1cncn1)c1cc(F)ccc1F [Isavuconazole] | inactive: -0.509
Cc1c[nH]cn1 | inactive: 1.77
CS(C)(=O)=O | inactive: 1.69
CCN1CCC[C@H]1CNC(=O)c1cc(S(N)(=O)=O)ccc1OC [(-)-Sulpiride] | inactive: 0.557
C[n+]1cccc(C(=O)[O-])c1 | inactive: 1.77
CC(=O)OC/C=C(\C)CC/C=C(\C)CC/C=C(\C)CC/C=C(\C)CC/C=C(\C)CC/C=C(\C)CC/C=C(\C)CC/C=C(\C)CCC=C(C)C | inactive: 2.11

Reference: the supplement of paper PMC8104966
